Source: patent US4853334A, “Method for the degradation of volatile chlorinated aliphatic hydrocarbons using pseudomonas fluorescens” (Microlife Technics, Inc., priority 1988, dated 1989)
At least one read-out could not be matched to a standard name with certainty.

Assays:
Format in all cases: cell-based
[1] = tested on: Pseudomonas fluorescens NRRL-B-18296; test: Degradation of trichloroethylene in minimal medium (Example 7); settings: 100 ppm; 1.0% glucose, 0.4% potassium nitrate; 10^6 bacteria/ml; 25° C., 120 hours; 7200 min
[2] = tested on: Pseudomonas fluorescens NRRL-B-18296; test: Degradation of a mixture of 1,2-dichloroethane and 1,2-dichloropropane, 1.0% glucose (Example 5); settings: 100 ppm each, 0.4% potassium nitrate, 10^6 bacteria/ml, 25° C., 48 hours
Experimental: (§1) In Examples 3 to 6, compounds of interest were quantitated using a Perkin-Elmer (model 8500) gas chromatograph equipped with an HS-6 headspace analyzer (Perkin-Elmer, Norwalk, CT). The instrument was fitted with a 6 foot stainless steel Sp2100 column (Supelco, Bellefonte, PA). Carrier gas flow rate (helium) was 20 ml/min. with an isothermal column temperature of 60° C. Injector and detector temperatures were 150° C. and 200° C. respectively.
(§2) All sample vials were equilibrated at 80° C. in the headspace analyzer for 10 minutes. Vial pressurization times of 30 seconds and injection times of 6 seconds were both controlled by programmed instrument time functions.
(§3) Calibrations were made by the external standard method using the internal data handling capabilities of the instrument. 100 ppm standards were prepared by dispensing 10 ul of the compounds into a serum bottle containing 100.0 g of chilled media analogous to experimental vials. Once the compound was completely dissolved, 2.00 g of the mixture was delivered by syringe to a headspace vial and sealed for subsequent headspace GC analysis.
Analysis of experimental vials was conducted by removing an aliquot by syringe and delivering 2.00 g to a headspace vial. Vials (6 ml) specified for use with the headspace analyzer were sealed using 19 mm TFE/silicone rubber septa and 20 mm crimp top seals (Alltech Associates, Deerfield, IL). […]

[3] = tested on: Pseudomonas fluorescens NRRL-B-18296; test: Induction of degradation of 1,2-dichloroethane using various carbon sources (Example 6); settings: 100 ppm, 25° C., 24 hours
Experimental: as §1, §2, §3
Analysis of experimental vials was conducted by removing an aliquot by syringe and delivering 2.00 g to a headspace vial. Vials (6 ml) specified for use with the headspace analyzer were sealed using 19 mm TFE/silicone rubber septa and 20 mm crimp top seals (Alltech Associates, Deerfield, IL). A hand operated crimper was utilized.
Pseudomonas fluorescens NRRL-B-18296 was incubated in 100 ml of mmo containing 0.4% potassium nitrate and supplemented with 20 mM sodium lactate, at 25° C. on a shaker at 350 rpm. After 24 hours of growth, the above culture was utilized as an inoculum for induction studies on a variety of other carbon sources.
Individual flasks were supplemented with the following carbon sources at 2mM: ethanol, sodium acetate, glucose, sodium succinate, sodium benzoate, ortho cresol or meta cresol. The induced cultures were grown overnight at 25° C. on a shaker at 350 rpm. After 16 hours, the cells were harvested by centrifugation at 24,000×g at 4° C. for 15 minutes. The pellets were resuspended in sterile distilled water and centrifuged at 24,000×g at 4° C. for 15 minutes. The pellets were resuspended in sterile mmo medium supplemented with 0.4% potassium nitrate until they were at an equivalent cell mass of 10^6 bacteria/ml based on turbidity at ^A 425nm. The cells (0.1 ml) were then inoculated into sterile 6 ml headspace analyzer vials containing 1.9 ml of minimal medium (mmo) supplemented with 0.4% potassium nitrate and 100 ppm of 1,2-dichloroethane. These vials were then sealed using 19 mm TFE/silicone rubber septa and 20 mm crimp top seals (Alltech Associates, Deerfield, IL). The crimped, sealed flasks were then placed on a shaker at 350 rpm and incubated at 25° C. for 24 hours (1 day). After incubation for 24 hours, the vials were analyzed directly on the headspace gas chromatograph.

SMILES | % Degradation Trichloroethylene [1] | % Degradation [2] | % degradation 1,2-dichloroethane ([3]; cells induced with ethanol (2 mM)) | % degradation 1,2-dichloroethane ([3]; cells induced with glucose (2 mM)) | % degradation 1,2-dichloroethane ([3]; cells induced with meta cresol (2 mM)) | % degradation 1,2-dichloroethane ([3]; cells induced with ortho cresol (2 mM)) | % degradation 1,2-dichloroethane ([3]; cells induced with sodium acetate (2 mM)) | % degradation 1,2-dichloroethane ([3]; cells induced with sodium benzoate (2 mM)) | % degradation 1,2-dichloroethane ([3]; cells induced with sodium succinate (2 mM)) | % degradation 1,2-dichloroethane ([3]; no supplemented carbon source (None))
ClC=C(Cl)Cl [trichloroethylene] | 13% |  |  |  |  |  |  |  |  | 
ClCCCl [1,2-dichloroethane] |  | 15% | 8.2% | 12.0% | 5.9% | 1.2% | 5.1% | 3.7% | 4.4% | 0.0%
CC(Cl)CCl (centres unmarked) [1,2-dichloropropane] |  | 16% |  |  |  |  |  |  |  | 
